# Patent US20210121493A1, “METHODS FOR TREATING LIVER DISEASES” (Cedars-Sinai Medical Center, priority 2017, published 2021)
# For at least one compound, name, drawing or mass did not settle the structure.
# System: MAFG
# Test: expression of the oncogene MAFG
compound,measurement,value
"CC[C@H]1[C@@H](O)[C@@H]2[C@H](CC[C@]3(C)[C@@H]([C@H](C)CCC(=O)O)CC[C@@H]23)[C@@]2(C)CC[C@@H](O)C[C@@H]12 [OCA, 6α-ethyl-chenodeoxycholic acid]",effect on expression of MAFG,induces expression of the oncogene MAFG
